{
  "source": "patent US20210032416A1",
  "about": "“Method for Obtaining Functionalised Polymer Particles” (NANOMA TERIALES Y POLIMEROS, S.L., priority 2018, published 2021)",
  "origin": "cited, not measured here",
  "test_system": "Porphyromonas gingivalis (Pg)",
  "note": "For at least one compound, name, drawing or mass did not settle the structure.",
  "data": [
    {"molecule": "C[C@H]1c2cccc(O)c2C(=O)C2=C(O)[C@]3(O)C(=O)C(C(N)=O)=C(O)[C@@H](N(C)C)[C@@H]3[C@@H](O)[C@@H]21", "note": "[doxycycline]", "values": [
      {"measurement": "minimum inhibitory concentration (MIC) to which PG is susceptible", "result": 6, "unit": "µg/mL"}
    ]}
  ]
}
